# Experimental data published in the supplement of paper PMC10032668.
# Chains of the proteins cited; added tags and fusions are not shown.
# EIF3D, O15371, UniProt O15371, whole entry: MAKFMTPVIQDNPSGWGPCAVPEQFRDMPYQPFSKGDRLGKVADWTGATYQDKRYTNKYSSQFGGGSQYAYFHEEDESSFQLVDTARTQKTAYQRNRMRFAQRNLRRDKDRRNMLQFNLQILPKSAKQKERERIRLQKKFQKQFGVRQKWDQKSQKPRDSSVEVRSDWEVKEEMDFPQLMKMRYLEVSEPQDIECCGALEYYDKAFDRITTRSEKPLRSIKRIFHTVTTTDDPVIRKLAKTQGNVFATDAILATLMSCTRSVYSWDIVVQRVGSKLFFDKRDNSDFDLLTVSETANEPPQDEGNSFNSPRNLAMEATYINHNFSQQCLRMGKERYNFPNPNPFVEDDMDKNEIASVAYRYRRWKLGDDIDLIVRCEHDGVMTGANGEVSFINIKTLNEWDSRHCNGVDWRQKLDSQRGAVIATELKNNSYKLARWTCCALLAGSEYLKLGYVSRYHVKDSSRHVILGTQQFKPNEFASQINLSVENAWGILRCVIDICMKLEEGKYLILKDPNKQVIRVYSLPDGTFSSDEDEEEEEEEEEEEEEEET
# FLNA, P21333, UniProt P21333, whole entry: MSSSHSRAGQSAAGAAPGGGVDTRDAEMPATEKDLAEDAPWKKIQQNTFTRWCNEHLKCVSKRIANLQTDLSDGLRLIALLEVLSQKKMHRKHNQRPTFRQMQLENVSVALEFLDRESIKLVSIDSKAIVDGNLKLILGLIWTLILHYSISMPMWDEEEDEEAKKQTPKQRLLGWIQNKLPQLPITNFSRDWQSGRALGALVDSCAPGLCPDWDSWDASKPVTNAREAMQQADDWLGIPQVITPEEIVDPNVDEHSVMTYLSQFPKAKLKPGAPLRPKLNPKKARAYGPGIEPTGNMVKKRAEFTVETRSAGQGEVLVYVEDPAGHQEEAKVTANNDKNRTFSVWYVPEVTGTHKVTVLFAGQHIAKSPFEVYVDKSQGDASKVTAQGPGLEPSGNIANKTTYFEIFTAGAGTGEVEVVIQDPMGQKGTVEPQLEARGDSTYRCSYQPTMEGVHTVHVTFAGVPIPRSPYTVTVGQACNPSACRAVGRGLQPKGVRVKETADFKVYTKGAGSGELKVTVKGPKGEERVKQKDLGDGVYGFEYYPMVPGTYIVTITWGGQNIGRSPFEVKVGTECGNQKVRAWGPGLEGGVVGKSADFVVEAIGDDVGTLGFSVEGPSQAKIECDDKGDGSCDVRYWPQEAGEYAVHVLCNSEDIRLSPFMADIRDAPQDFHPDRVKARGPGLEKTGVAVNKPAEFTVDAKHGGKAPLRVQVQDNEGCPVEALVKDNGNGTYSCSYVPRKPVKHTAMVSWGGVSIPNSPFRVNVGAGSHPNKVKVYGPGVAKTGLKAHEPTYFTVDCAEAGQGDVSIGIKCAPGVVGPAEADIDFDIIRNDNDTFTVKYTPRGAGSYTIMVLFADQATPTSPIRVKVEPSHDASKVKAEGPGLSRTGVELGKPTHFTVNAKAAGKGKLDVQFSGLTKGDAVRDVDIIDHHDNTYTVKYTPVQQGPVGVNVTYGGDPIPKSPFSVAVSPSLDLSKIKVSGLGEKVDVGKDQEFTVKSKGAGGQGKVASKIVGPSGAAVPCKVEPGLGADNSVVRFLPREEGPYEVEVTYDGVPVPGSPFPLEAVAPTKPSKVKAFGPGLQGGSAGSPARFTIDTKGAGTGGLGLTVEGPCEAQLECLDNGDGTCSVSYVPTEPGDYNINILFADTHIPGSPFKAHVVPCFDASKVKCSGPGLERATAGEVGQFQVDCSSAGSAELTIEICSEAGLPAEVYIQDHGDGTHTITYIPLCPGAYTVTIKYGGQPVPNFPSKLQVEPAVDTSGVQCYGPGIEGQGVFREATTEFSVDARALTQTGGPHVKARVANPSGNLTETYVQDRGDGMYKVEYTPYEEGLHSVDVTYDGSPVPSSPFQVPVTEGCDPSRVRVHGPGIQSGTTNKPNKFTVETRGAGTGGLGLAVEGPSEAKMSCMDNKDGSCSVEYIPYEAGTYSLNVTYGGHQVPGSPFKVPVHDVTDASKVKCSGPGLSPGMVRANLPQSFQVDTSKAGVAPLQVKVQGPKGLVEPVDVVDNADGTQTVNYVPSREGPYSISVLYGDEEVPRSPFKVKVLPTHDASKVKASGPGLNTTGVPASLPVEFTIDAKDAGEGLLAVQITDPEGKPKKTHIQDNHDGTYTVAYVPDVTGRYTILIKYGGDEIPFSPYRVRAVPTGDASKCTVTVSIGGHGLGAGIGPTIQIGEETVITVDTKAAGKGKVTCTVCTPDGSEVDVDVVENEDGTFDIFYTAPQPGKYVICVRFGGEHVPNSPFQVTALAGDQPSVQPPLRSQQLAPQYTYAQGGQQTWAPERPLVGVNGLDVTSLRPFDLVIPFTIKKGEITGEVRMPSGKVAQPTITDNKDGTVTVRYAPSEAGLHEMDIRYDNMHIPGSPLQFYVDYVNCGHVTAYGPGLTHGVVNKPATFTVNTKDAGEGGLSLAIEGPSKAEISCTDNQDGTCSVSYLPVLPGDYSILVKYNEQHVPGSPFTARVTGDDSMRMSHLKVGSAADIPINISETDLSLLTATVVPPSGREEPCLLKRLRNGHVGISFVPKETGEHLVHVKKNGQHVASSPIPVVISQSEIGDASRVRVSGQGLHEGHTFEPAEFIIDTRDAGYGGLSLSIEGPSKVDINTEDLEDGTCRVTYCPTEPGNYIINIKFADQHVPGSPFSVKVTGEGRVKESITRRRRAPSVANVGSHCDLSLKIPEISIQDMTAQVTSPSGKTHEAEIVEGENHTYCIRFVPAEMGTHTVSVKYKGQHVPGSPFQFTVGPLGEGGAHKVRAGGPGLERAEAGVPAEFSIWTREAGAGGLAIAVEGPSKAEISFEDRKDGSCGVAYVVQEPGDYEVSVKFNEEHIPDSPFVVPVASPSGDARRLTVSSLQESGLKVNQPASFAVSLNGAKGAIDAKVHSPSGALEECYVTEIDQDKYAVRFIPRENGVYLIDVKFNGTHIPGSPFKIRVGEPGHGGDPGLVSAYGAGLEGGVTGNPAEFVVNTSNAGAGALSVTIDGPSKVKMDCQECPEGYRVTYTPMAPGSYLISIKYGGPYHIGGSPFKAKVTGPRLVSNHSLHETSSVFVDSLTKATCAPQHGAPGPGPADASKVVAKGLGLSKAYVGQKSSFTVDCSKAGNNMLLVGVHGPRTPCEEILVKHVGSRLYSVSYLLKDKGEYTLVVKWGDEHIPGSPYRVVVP
# NCAPH, Q15003, UniProt Q15003, whole entry: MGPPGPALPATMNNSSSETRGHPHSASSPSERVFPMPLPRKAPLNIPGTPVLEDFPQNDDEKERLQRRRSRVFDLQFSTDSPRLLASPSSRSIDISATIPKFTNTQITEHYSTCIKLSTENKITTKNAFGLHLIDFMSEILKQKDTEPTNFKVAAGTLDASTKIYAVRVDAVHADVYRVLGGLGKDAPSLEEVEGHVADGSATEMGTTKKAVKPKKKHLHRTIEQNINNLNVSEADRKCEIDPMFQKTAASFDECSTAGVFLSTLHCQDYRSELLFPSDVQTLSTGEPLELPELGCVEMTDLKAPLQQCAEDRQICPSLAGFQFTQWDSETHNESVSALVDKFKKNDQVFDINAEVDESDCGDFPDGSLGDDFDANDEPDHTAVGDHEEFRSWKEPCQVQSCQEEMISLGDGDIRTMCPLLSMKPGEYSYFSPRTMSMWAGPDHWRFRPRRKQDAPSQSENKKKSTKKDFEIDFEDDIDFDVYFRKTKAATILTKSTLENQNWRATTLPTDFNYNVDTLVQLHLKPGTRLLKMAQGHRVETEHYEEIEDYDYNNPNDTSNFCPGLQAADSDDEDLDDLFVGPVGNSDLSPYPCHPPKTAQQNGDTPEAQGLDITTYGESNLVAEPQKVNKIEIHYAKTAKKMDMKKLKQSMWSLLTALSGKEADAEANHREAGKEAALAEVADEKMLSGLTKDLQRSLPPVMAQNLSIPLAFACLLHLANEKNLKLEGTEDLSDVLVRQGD
# SMARCE1, Q969G3, UniProt Q969G3, whole entry: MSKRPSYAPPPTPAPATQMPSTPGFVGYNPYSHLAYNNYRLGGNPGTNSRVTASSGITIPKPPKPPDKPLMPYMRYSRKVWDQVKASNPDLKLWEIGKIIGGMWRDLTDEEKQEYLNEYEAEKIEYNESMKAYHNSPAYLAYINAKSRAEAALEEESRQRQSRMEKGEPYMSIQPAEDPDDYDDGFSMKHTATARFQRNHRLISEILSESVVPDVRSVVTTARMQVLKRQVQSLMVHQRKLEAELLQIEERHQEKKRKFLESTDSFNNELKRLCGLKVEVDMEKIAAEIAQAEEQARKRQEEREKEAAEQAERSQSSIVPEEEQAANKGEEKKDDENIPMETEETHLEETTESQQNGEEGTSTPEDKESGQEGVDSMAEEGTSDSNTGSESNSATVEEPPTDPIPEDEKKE
# INTS7, Q9NVH2, UniProt Q9NVH2, whole entry: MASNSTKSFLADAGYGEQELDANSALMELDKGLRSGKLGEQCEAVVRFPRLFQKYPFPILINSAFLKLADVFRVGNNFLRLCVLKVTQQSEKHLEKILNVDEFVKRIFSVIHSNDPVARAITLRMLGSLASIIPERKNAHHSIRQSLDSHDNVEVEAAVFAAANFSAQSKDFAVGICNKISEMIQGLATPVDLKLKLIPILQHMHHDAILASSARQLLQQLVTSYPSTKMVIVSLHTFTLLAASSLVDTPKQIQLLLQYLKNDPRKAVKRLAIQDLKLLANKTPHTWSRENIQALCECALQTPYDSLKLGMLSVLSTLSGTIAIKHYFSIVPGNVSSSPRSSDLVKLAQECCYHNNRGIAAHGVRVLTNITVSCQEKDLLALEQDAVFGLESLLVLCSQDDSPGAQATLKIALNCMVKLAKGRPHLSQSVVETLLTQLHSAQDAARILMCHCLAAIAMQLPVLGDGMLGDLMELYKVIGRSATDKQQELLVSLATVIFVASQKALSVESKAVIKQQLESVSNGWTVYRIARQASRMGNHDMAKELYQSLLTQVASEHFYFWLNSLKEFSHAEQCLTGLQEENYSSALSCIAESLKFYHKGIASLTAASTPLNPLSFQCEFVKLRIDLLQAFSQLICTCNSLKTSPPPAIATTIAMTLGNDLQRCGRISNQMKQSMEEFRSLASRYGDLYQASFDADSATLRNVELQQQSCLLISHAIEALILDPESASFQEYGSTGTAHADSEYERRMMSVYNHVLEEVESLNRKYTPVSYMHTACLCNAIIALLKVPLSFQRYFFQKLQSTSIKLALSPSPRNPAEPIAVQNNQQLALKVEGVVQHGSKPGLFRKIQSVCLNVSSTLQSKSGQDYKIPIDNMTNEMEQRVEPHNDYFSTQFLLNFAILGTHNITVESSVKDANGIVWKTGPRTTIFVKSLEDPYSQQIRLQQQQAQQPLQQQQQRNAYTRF
# EIF3G, O75821, UniProt O75821, whole entry: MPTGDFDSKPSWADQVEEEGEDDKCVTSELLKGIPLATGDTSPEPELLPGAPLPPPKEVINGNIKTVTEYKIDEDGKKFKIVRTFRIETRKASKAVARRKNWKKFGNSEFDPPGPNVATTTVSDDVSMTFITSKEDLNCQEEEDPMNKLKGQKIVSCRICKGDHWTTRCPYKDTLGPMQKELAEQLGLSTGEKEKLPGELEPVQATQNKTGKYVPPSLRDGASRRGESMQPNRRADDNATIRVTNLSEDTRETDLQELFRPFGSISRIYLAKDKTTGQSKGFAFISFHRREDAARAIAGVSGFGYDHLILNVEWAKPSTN
# IDH1, O75874, UniProt O75874, whole entry: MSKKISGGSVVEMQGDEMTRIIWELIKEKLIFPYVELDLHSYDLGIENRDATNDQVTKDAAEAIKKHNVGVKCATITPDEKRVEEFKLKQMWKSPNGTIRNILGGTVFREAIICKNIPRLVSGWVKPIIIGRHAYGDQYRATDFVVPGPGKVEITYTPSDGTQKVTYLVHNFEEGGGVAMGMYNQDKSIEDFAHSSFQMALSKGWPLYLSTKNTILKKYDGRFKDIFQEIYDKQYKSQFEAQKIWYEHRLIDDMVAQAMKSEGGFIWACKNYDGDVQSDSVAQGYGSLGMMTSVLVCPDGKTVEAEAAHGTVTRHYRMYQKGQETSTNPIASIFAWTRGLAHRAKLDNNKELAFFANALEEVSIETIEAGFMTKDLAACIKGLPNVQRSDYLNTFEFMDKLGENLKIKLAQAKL
# NDUFB9, Q9Y6M9, UniProt Q9Y6M9, whole entry: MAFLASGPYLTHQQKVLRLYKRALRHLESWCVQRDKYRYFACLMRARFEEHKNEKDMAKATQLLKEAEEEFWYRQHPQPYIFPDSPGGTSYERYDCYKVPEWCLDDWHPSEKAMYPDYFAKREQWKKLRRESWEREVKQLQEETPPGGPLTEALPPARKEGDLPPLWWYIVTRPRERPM
# This is one part of the list. Only hits are listed; about a third recur on repeated control peptides.
# Tests used:
# Assay in all cases: PRISMA enrichment of interactor (LFQ) in peptide spot vs all other peptide spots (log2 fold change); higher = stronger / more specific binding of the interactor to the peptide
# ACACA, Q13085 = target: ACACA, Q13085
# Procedure: (§1)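 PRISMA: 15-aa overlapping tiles (offset 8 aa) of 60 microproteins, plus SOS1/GLUT1 control peptides, were spot-synthesized on cellulose membranes in triplicate. Membranes were incubated with benzonase-treated HEK293T lysate, and bound proteins were identified by LC-MS/MS with LFQ. Enrichment is the log2 fold change of each protein in one spot versus all other spots. Only interactors passing the significance cutoff are listed.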
# CBSL = target: CBSL
# Procedure: as §1
# CHD1, O14646 = target: CHD1, O14646
# Procedure: as §1
# COPZ1, P61923 = target: COPZ1, P61923
# Procedure: as §1
# [1] = substrate: CS, O75390
# Procedure: as §1
# CTPS1, P17812 = target: CTPS1, P17812
# Procedure: as §1
# ECPAS, Q5VYK3 = target: ECPAS, Q5VYK3
# Procedure: as §1
# EIF3D, O15371 = target: EIF3D, O15371
# Procedure: as §1
# FLNA, P21333 = target: FLNA, P21333
# Procedure: as §1
# FLOT1, O75955 = target: FLOT1, O75955
# Procedure: as §1
# GAR1, Q9NY12 = target: GAR1, Q9NY12
# Procedure: as §1
# GPD1L, Q8N335 = target: GPD1L, Q8N335
# Procedure: as §1
# GTF3C5, Q9Y5Q8 = target: GTF3C5, Q9Y5Q8
# Procedure: as §1
# HSPA6, P17066 = target: HSPA6, P17066
# Procedure: as §1
# LRRC59, Q96AG4 = target: LRRC59, Q96AG4
# Procedure: as §1
# MAGT1, Q9H0U3 = target: MAGT1, Q9H0U3
# Procedure: as §1
# MRPS9, P82933 = target: MRPS9, P82933
# Procedure: as §1
# MRTO4, Q9UKD2 = target: MRTO4, Q9UKD2
# Procedure: as §1
# NCAPH, Q15003 = target: NCAPH, Q15003
# Procedure: as §1
# NOB1, Q9ULX3 = target: NOB1, Q9ULX3
# Procedure: as §1
# NUP93, Q8N1F7 = target: NUP93, Q8N1F7
# Procedure: as §1
# ORC3, Q9UBD5 = target: ORC3, Q9UBD5
# Procedure: as §1
# PDAP1, Q13442 = target: PDAP1, Q13442
# Procedure: as §1
# PRPF4B = target: PRPF4B
# Procedure: as §1
# PSMC1, P62191 = target: PSMC1, P62191
# Procedure: as §1
# RAN, P62826 = target: RAN, P62826
# Procedure: as §1
# RANBP2, P49792 = target: RANBP2, P49792
# Procedure: as §1
# SLC25A24, Q6NUK1 = target: SLC25A24, Q6NUK1
# Procedure: as §1
# SMARCE1, Q969G3 = target: SMARCE1, Q969G3
# Procedure: as §1
# UTP18, Q9Y5J1 = target: UTP18, Q9Y5J1
# Procedure: as §1
# ACAA2, P42765 = target: ACAA2, P42765
# Procedure: as §1
# INTS7, Q9NVH2 = target: INTS7, Q9NVH2
# Procedure: as §1
# NCDN, Q9UBB6 = target: NCDN, Q9UBB6
# Procedure: as §1
# RAVER1, Q8IY67 = target: RAVER1, Q8IY67
# Procedure: as §1
# SHROOM3, Q8TF72 = target: SHROOM3, Q8TF72
# Procedure: as §1
# UQCRFS1, P47985 = target: UQCRFS1, P47985
# Procedure: as §1
# ALDH4A1, P30038 = target: ALDH4A1, P30038
# Procedure: as §1
# ALG6, Q9Y672 = target: ALG6, Q9Y672
# Procedure: as §1
# ATG4B, Q9Y4P1 = target: ATG4B, Q9Y4P1
# Procedure: as §1
# CENPB, P07199 = target: CENPB, P07199
# Procedure: as §1
# CENPV, Q7Z7K6 = target: CENPV, Q7Z7K6
# Procedure: as §1
# CGN, Q9P2M7 = target: CGN, Q9P2M7
# Procedure: as §1
# CHD4, Q14839 = target: CHD4, Q14839
# Procedure: as §1
# CSNK2A2, P19784 = target: CSNK2A2, P19784
# Procedure: as §1
# DDX42, Q86XP3 = target: DDX42, Q86XP3
# Procedure: as §1
# DYNC2H1, Q8NCM8 = target: DYNC2H1, Q8NCM8
# Procedure: as §1
# EIF3G, O75821 = target: EIF3G, O75821
# Procedure: as §1
# FYTTD1, Q96QD9 = target: FYTTD1, Q96QD9
# Procedure: as §1
# HNRNPDL, O14979 = target: HNRNPDL, O14979
# Procedure: as §1
# IDH1, O75874 = target: IDH1, O75874
# Procedure: as §1
# MMS19, Q96T76 = target: MMS19, Q96T76
# Procedure: as §1
# MRPL43, Q8N983 = target: MRPL43, Q8N983
# Procedure: as §1
# MRPL55, Q7Z7F7 = target: MRPL55, Q7Z7F7
# Procedure: as §1
# MRPS10, P82664 = target: MRPS10, P82664
# Procedure: as §1
# NDUFB9, Q9Y6M9 = target: NDUFB9, Q9Y6M9
# Procedure: as §1
# NUP88, Q99567 = target: NUP88, Q99567
# Procedure: as §1
# PDLIM7, Q9NR12 = target: PDLIM7, Q9NR12
# Procedure: as §1
# PEBP1, P30086 = target: PEBP1, P30086
# Procedure: as §1
# POLR2C, P19387 = target: POLR2C, P19387
# Procedure: as §1
# PPP1CC, P36873 = target: PPP1CC, P36873
# Procedure: as §1
# SYNCRIP, O60506 = target: SYNCRIP, O60506
# Procedure: as §1
# TBCD, Q9BTW9 = target: TBCD, Q9BTW9
# Procedure: as §1
# YWHAH, Q04917 = target: YWHAH, Q04917
# Procedure: as §1
binder,measurement,setting,value
PRHLPVDFLAERMLA [PVT1],PRISMA enrichment of interactor (log2),"ACACA, Q13085",4.81
same,PRISMA enrichment of interactor (log2),CBSL,9.07
same,PRISMA enrichment of interactor (log2),"CHD1, O14646",5.53
same,PRISMA enrichment of interactor (log2),"COPZ1, P61923",4.62
same,PRISMA enrichment of interactor (log2),[1],6.89
same,PRISMA enrichment of interactor (log2),"CTPS1, P17812",5.02
same,PRISMA enrichment of interactor (log2),"ECPAS, Q5VYK3",5.25
same,PRISMA enrichment of interactor (log2),"EIF3D, O15371",6.45
same,PRISMA enrichment of interactor (log2),"FLNA, P21333",5.25
same,PRISMA enrichment of interactor (log2),"FLOT1, O75955",7.59
same,PRISMA enrichment of interactor (log2),"GAR1, Q9NY12",6.95
same,PRISMA enrichment of interactor (log2),"GPD1L, Q8N335",9.76
same,PRISMA enrichment of interactor (log2),"GTF3C5, Q9Y5Q8",6.73
same,PRISMA enrichment of interactor (log2),"HSPA6, P17066",6.51
same,PRISMA enrichment of interactor (log2),"LRRC59, Q96AG4",5.43
same,PRISMA enrichment of interactor (log2),"MAGT1, Q9H0U3",6.9
same,PRISMA enrichment of interactor (log2),"MRPS9, P82933",5.12
same,PRISMA enrichment of interactor (log2),"MRTO4, Q9UKD2",5.5
same,PRISMA enrichment of interactor (log2),"NCAPH, Q15003",5.1
same,PRISMA enrichment of interactor (log2),"NOB1, Q9ULX3",5.89
same,PRISMA enrichment of interactor (log2),"NUP93, Q8N1F7",4.97
same,PRISMA enrichment of interactor (log2),"ORC3, Q9UBD5",4.67
same,PRISMA enrichment of interactor (log2),"PDAP1, Q13442",5.87
same,PRISMA enrichment of interactor (log2),PRPF4B,8.61
same,PRISMA enrichment of interactor (log2),"PSMC1, P62191",6.51
same,PRISMA enrichment of interactor (log2),"RAN, P62826",4.97
same,PRISMA enrichment of interactor (log2),"RANBP2, P49792",5.19
same,PRISMA enrichment of interactor (log2),"SLC25A24, Q6NUK1",5.7
same,PRISMA enrichment of interactor (log2),"SMARCE1, Q969G3",6.28
same,PRISMA enrichment of interactor (log2),"UTP18, Q9Y5J1",12.3
FLKYVLLFFSLHVEH [HAND2-AS1],PRISMA enrichment of interactor (log2),"ACAA2, P42765",4.31
same,PRISMA enrichment of interactor (log2),"INTS7, Q9NVH2",6.72
same,PRISMA enrichment of interactor (log2),"NCDN, Q9UBB6",5.74
same,PRISMA enrichment of interactor (log2),"RAVER1, Q8IY67",5.12
same,PRISMA enrichment of interactor (log2),"SHROOM3, Q8TF72",8.8
same,PRISMA enrichment of interactor (log2),"UQCRFS1, P47985",5.53
VAFASGVLLGWQANR [MTLN],PRISMA enrichment of interactor (log2),"ACAA2, P42765",5.16
same,PRISMA enrichment of interactor (log2),"ALDH4A1, P30038",5.78
same,PRISMA enrichment of interactor (log2),"ALG6, Q9Y672",4.31
same,PRISMA enrichment of interactor (log2),"ATG4B, Q9Y4P1",4.87
same,PRISMA enrichment of interactor (log2),"CENPB, P07199",5.54
same,PRISMA enrichment of interactor (log2),"CENPV, Q7Z7K6",7.38
same,PRISMA enrichment of interactor (log2),"CGN, Q9P2M7",5.01
same,PRISMA enrichment of interactor (log2),"CHD4, Q14839",6.2
same,PRISMA enrichment of interactor (log2),"CSNK2A2, P19784",10.5
same,PRISMA enrichment of interactor (log2),"DDX42, Q86XP3",7.29
same,PRISMA enrichment of interactor (log2),"DYNC2H1, Q8NCM8",5.45
same,PRISMA enrichment of interactor (log2),"EIF3G, O75821",7.52
same,PRISMA enrichment of interactor (log2),"FYTTD1, Q96QD9",4.21
same,PRISMA enrichment of interactor (log2),"HNRNPDL, O14979",7.91
same,PRISMA enrichment of interactor (log2),"IDH1, O75874",4.97
same,PRISMA enrichment of interactor (log2),"MMS19, Q96T76",4.54
same,PRISMA enrichment of interactor (log2),"MRPL43, Q8N983",4.45
same,PRISMA enrichment of interactor (log2),"MRPL55, Q7Z7F7",5.1
same,PRISMA enrichment of interactor (log2),"MRPS10, P82664",5.21
same,PRISMA enrichment of interactor (log2),"NDUFB9, Q9Y6M9",6.55
same,PRISMA enrichment of interactor (log2),"NUP88, Q99567",4.58
same,PRISMA enrichment of interactor (log2),"PDLIM7, Q9NR12",5.17
same,PRISMA enrichment of interactor (log2),"PEBP1, P30086",5.59
same,PRISMA enrichment of interactor (log2),"POLR2C, P19387",5.24
same,PRISMA enrichment of interactor (log2),"PPP1CC, P36873",4.45
same,PRISMA enrichment of interactor (log2),"SYNCRIP, O60506",8.27
same,PRISMA enrichment of interactor (log2),"TBCD, Q9BTW9",6.02
same,PRISMA enrichment of interactor (log2),"YWHAH, Q04917",8.26

# In a second layout: entries from further up.
binder | measurement | setting | value
PRHLPVDFLAERMLA [PVT1] | PRISMA enrichment of interactor (log2) | CHD1, O14646 | 5.53
same | PRISMA enrichment of interactor (log2) | HSPA6, P17066 | 6.51
same | PRISMA enrichment of interactor (log2) | PSMC1, P62191 | 6.51
FLKYVLLFFSLHVEH [HAND2-AS1] | PRISMA enrichment of interactor (log2) | SHROOM3, Q8TF72 | 8.8
VAFASGVLLGWQANR [MTLN] | PRISMA enrichment of interactor (log2) | NUP88, Q99567 | 4.58
